Source: paper PMC12221994
No constants are given. Whether binding was seen depends on the method and setting. A result given as binding can be weak or reduced; the word gives no strength.

Biological target: RAP1 (human) (UniProt Q9NYB0)

TRF2(ΔBΔTRFH) (human) (domain or fragment)
binding: binds
